Values of other authors as cited in patent US8399497B2, “Thiazole derivatives and use thereof” (Merck Serono SA, priority 2005, dated 2013).
Read-outs that look alike come from different tables or passages of the source.

Test system: Class I PI3-kinases
Details: cited from earlier work

## COC[C@H]1OC(=O)c2coc3c2[C@@]1(C)C1=C(C3=O)[C@@H]2CCC(=O)[C@@]2(C)C[C@H]1OC(C)=O [wortmannin]
read-out: IC50 against each of the various Class I PI3-kinases
  IC50: 0.001 to 0.01 µM

## O=c1cc(N2CCOCC2)oc2c(-c3ccccc3)cccc12 [LY294002]
read-out: IC50 against each of the Class I PI3-kinases
  IC50: 15 to 20 µM
